# US20240368084A1, “STING MODULATORS, COMPOSITIONS, AND METHODS OF USE” (University of South Florida, priority 2021, published 2024)
# Amino acid sequences for entries named in this document (tags omitted).
# UniProt Q86WV6, whole entry H232R: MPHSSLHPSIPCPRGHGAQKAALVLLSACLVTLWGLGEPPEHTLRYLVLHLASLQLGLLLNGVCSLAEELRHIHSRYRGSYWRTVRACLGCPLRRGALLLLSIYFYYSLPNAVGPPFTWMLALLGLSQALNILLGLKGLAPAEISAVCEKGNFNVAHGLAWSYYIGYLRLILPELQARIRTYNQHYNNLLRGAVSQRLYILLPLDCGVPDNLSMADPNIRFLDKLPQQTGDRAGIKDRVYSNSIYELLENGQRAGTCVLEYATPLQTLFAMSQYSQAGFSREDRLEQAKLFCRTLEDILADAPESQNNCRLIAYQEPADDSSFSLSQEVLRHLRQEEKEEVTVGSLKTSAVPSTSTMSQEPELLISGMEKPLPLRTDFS
# For at least one compound, name, drawing or mass did not settle the structure.
# Molecular target: His-labeled STING (Homo sapiens, UniProt Q86WV6)
# Assay: Microscale thermophoresis (MST) binding assay
# Details: confidence class by MST shift units
# Description: Nanotemper Monolith NT.115 labeled thermophoresis machine was used with standard treated capillary tubes using samples comprised of labeled protein and titrations of small molecule in 1×PBS. […] Detection of the protein was performed using the blue detection channel with LED excitation power set to 90% and MST set to high allowing 3 s prior to MST on to check for initial fluorescence differences, 25 s for thermophoresis, and 3 s for regeneration after MST off.
# Detection of the protein was performed using the blue detection channel with LED excitation power set to 90% and MST set to high allowing 3 s prior to MST on to check for initial fluorescence differences, 25 s for thermophoresis, and 3 s for regeneration after MST off. Analysis was performed using M.O. Affinity Analysis Software with difference between initial fluorescence measured in the first 5 s as compared with thermophoresis at 15 s at 15 different analyte concentrations ranging from 100 zM to 100 μM and exported into Graphpad Prism v.8 using a Log inhibitor v. response 4 parameter fit.
# Confidence is categorized as follows: 1=low confidence (<2 MST shift unit−non-statistical); 2=mid confidence (2-3 MST shift units−intermediate); 3=high confidence ([…]−statistical). Dissociation constants are categorized as follows: A<1 μM; 1 μM≤B<100 μM; […]; 10 μM≤D<100 μM. […]
compound,measurement,value
Cc1c(Cl)cccc1Nc1ccccc1C(=O)OCC(O)CO (stereo not shown) [Compound 38],Confidence,1 (1=low confidence (<2 MST shift unit−non-statistical))
